Laboratory results taken from article PMC7190641.
These are yes or no findings as the source states them, for the method shown. In cells and extracts the contact can be indirect. These calls come from enrichment with a bait or labelling near it, and not all partners need be listed. For part of these data: Where a sequence is shown, tags or fusion partners need not be part of it.

The chains behind the UniProt entries cited, without tags or fusion partners. Where a name states a change or a piece, a line headed by the entry shows the natural chain unless it says otherwise.
UniProt G5EG87: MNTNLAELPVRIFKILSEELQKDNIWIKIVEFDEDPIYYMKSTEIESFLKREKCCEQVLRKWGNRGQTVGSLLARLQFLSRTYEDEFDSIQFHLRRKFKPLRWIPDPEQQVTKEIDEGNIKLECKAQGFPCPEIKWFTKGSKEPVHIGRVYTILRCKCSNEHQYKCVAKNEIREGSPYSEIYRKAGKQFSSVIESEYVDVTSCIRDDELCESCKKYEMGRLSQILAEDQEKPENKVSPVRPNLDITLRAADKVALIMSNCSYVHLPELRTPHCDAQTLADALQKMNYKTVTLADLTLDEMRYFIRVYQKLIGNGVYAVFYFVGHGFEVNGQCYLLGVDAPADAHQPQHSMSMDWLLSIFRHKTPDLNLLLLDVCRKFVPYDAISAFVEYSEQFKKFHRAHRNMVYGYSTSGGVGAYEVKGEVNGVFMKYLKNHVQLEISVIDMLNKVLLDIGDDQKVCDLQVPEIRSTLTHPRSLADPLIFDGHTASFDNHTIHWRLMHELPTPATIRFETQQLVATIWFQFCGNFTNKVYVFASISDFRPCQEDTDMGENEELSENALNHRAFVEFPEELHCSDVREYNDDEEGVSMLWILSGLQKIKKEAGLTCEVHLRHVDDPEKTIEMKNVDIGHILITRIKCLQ

Experiments:
Assay in all cases: affinity purification with mass spectrometry; IP of epitope-tagged bait from clarified C. elegans extract (lysis buffer A: 50 mM HEPES pH 7.4, 100 mM KCl, 0.05% NP40, 10% glycerol) with GFP-Trap MA, Myc-Trap MA or anti-FLAG M2 magnetic beads, 3-4 h at 4 °C; SDS-PAGE, LC-MS/MS, total spectral counts; controls: unrelated proteins with the same epitopes
[1] = biological target: MALT-1::GFP (GFP-tagged MALT-1 expressed pan-neuronally) (C. elegans) (UniProt G5EG87)
[2] = biological target: T1, NFKI-1::GFP (integrated nfki-1::gfp transgene) (C. elegans) (UniProt G5EDE9)
T1 sequence: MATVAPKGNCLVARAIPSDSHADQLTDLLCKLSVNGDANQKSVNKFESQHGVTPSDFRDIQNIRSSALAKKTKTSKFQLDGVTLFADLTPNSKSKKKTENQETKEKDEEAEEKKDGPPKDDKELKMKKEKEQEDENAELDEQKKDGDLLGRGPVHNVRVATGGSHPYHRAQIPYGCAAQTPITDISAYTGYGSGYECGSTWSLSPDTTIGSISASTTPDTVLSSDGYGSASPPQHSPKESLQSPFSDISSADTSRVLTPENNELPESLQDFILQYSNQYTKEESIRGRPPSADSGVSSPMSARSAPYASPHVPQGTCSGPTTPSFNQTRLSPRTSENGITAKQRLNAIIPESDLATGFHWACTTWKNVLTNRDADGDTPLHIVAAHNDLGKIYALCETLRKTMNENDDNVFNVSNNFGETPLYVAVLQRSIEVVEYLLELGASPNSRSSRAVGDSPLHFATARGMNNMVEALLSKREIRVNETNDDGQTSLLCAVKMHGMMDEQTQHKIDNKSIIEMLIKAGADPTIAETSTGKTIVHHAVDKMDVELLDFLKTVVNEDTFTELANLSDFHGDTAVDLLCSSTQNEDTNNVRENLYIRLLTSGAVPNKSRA

[3] = biological target: T2, PIK-1-Myc (endogenous PIK-1 tagged with a Myc epitope) (C. elegans) (UniProt G5ECP4)
T2 sequence: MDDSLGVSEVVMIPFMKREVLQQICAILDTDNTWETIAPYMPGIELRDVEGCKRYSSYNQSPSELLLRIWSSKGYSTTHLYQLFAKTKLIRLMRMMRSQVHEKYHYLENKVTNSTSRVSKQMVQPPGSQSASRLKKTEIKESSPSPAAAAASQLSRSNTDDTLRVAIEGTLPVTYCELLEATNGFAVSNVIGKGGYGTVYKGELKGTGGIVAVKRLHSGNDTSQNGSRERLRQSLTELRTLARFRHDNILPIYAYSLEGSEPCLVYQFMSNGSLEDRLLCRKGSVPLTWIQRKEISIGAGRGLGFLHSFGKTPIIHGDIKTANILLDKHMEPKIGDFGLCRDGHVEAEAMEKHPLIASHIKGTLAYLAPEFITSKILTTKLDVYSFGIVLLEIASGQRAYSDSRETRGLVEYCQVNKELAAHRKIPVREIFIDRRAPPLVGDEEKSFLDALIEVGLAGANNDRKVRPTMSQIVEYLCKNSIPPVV

- binding [1]: binds
- binding [2]: binds
- binding [3]: binds
B1: ACTL-1 (endogenous, C. elegans extract) (protein, UniProt Q18008 1-360)
chain: MTKMKMDVTIELDLDGDDWEEVDVLSDKCVEDILEDVHIDDPILVSDVRITLPANIRIKNFKKEIRDLILANLDVPTTVSAGSWQIVSSFLRGIEYSEIGGRERNSKLSWKPFEDMHAQILVNALAYAQRVDILVKLKSYIDSNSYLKNVPEPMFAFADTDSMASTTTFSEYAEPVHSMNARKKILLLHYETTSKEKEDFKWFKCNLKNVLEKERKEGKDLEVFDVKVWEKDDRGNVFQELEKHYDLFPHIVVCFNKSYIEATKPNSKSKMPQFRKSISDKLNVEFHMNGNRNLRGRCVLMSEVEKVTDTYWAAVTNQYPFPGSFEPFVKRLLRDGKVKKQSHNNANDHHEDSMNYSITQ
